Reference: patent US10052301B2, “Derivatives of propane diyl dicinnamate” (ORX PHARMACEUTICAL CORPORATION, priority 2009, dated 2018)

Columns and labels:
Format in all cases: cell-based
[1] = system: MCF-7 (human breast carcinoma cells); experiment: MTT cell proliferation and viability assay, MCF-7; conditions: IC50(GM9503)/IC50(MCF-7)
Experimental: (§1) Normal human fibroblast cell lines (GM9503 and GM8399) and human carcinoma cell lines MCF-7, A549, HCT116, SKOV-3 and PC-3 were maintained in DMEM (Dulbeco's Modified Essential Medium) supplemented with 10% FBS (Fetal Bovine Serum). In addition, murine leukemia MDAY-D2 cells were maintained in RPMI 1640 media supplemented with 5% FBS. All media were supplemented with 100 […] (all from Hyclone, Logan, Utah). Cells were incubated in a humidified air atmosphere containing 5% CO2 at 37° C.
(§2) Cell growth and viability were measured using the 3-(4,5-dimethythiazol-2-yl)-2,5-diphenyl tetrazolium bromide (MTT) reduction assay. MTT reagent (Sigma, St. Louis, Mo.) was prepared at 5 mg/ml in ddH2O (5× solution), filter sterilized and stored in the dark at −20° C.
(§3) To determine the optimal number of cells to seed per well, preliminary experiments were conducted examining increasing cell densities in 96 well plates. Cell were seeded at various densities and examined under the microscope after 96 h. Based on these experiments and growth curve analyses, optimal cell densities were selected for each cell line. […] Three hours after the addition of MTT, the amount of formazan formed was measured spectrophotometrically at 570 nm with a Spectramax Plus 384 plate reader.
(§4) To assess the effects of the novel compounds on growth and viability, GM9503 (normal human fibroblast cells; 2.08×10^3 cells/well), GM8399 (normal human fibroblast cells; 2.04×10^3 cells/well), A549 (human lung carcinoma cells; 2.05×10^3 cells/well), HCT116 (human colon carcinoma cells; 2.19×10^3 cells/well), MCF-7 (human breast carcinoma cells; 2.19×10^3 cells/well), SKOV-3 (human ovarian carcinoma cells; 2.10×10^3 cells/well), PC-3 (human prostate carcinoma cells; 2.08×10^3 cells/well) and MDAY-D2 (murine leukemia cells; 2.5×10^3 cells/well) were seeded in 96 well plates in supplemented medium. […] After incubation for 72 h, cell growth and viability were measured. […]

[2] = system: A549 (human lung carcinoma cells); experiment: MTT cell proliferation and viability assay, A549; conditions: IC50(GM9503)/IC50(A549)
Experimental: as §1, §2, §3, §4

[3] = system: HCT116 (human colon carcinoma cells); experiment: MTT cell proliferation and viability assay, HCT116; conditions: IC50(GM9503)/IC50(HCT116)
Experimental: as §1, §2, §3, §4

[4] = system: PC-3 (human prostate carcinoma cells); experiment: MTT cell proliferation and viability assay, PC-3; conditions: IC50(GM9503)/IC50(PC-3)
Experimental: as §1, §2, §3, §4

[5] = system: SKOV-3 (human ovarian carcinoma cells); experiment: MTT cell proliferation and viability assay, SKOV-3; conditions: IC50(GM9503)/IC50(SKOV-3)
Experimental: as §1, §2, §3, §4

Structure (SMILES)	therapeutic (safety) index MCF-7 (Breast) [1]	therapeutic (safety) index A549 (Lung) [2]	therapeutic (safety) index HCT116 (Colon) [3]	therapeutic (safety) index PC-3 (Prostate) [4]	therapeutic (safety) index SKOV-3 (Ovarian) [5]
O=C(/C=C/c1ccc(O)c(O)c1)OCC(O)COC(=O)/C=C/c1ccc(O)c(O)c1 [Compound (IIb), (2E,2′E)-2-hydroxypropane-1,3-diyl bis(3-(3,4-dihroxyphenyl) acrylate]	0.95	3.38	2.63	10.52	4.51
COc1ccc(/C=C/C(=O)OCC(O)COC(=O)/C=C/c2ccccc2)cc1OC (stereo not drawn) [Compound (Id), (E)-3-(cinnamoyloxy)-2-hydroxypropyl 3-(3,4-dimethoxyphenyl) acrylate]	0.70	3.31	5.25	6.64	2.74
O=C(/C=C/c1ccccc1)OCC(O)COC(=O)/C=C/c1ccc(O)c(O)c1 (stereo not drawn) [Compound (Ie), (E)-3-(cinnamoyloxy)-2-hydroxypropyl 3-(3,4-dihydroxypheyl)acrylate]	1.13	1.12	1.34	4.14	2.26
